Results deposited as PubChem BioAssay AID743454 (Peter MacCallum Cancer Centre, 2014)
This is an unselected part of about 18,000 reagents. 450 of them (2.5%) count as active. 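Single biological run; no consistent viability z cut-off exists, so the class columns, not z-scores, define the calls.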

- Purpose: 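Search for knock-downs that restore vorinostat killing in resistant colon cancer cells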 (primary screen)
- Cells: human HCT116-VR colon cancer cells, selected for vorinostat resistance
- Knock-down reagent: siRNA pool against human genes, 40 nM siRNA pool
- Timing: vorinostat for 24 h, read-out about 72 h after transfection
- Treatment: vorinostat at 2.5 µM final
- Detection: 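Cell viability by CellTiter-Fluor and caspase 3/7 activity by luminescence, each scaled to mock wells per plate, duplicates averaged, then robust z-scored over all plates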
- Direction: viability robust z-score: higher = more viable cells than screen typical; caspase robust z-score: higher = more caspase 3/7 activity than screen typical
- Call rule: 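a knock-down is a hit when classed RV1 or RV2 for lowered viability, or CA1 or CA2 for caspase activation; those lethal without drug were dropped; hits were retested singly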

Gene | viability hit class | caspase hit class | viability robust z-score | caspase robust z-score | activity call
KIF3C | no change | no change | 0.32 | -0.94 | inactive
GCSH | no change | no change | 0.16 | -0.24 | inactive
ARRDC2 | no change | no change | -0.53 | 3.45 | inactive
LTBR | no change | no change | -1.08 | 0.35 | inactive
IGF2BP2 | no change | no change | -0.01 | 2.38 | inactive
USP29 | no change | no change | 2.04 | -0.67 | inactive
ZFR2 | no change | no change | 1.05 | -0.42 | inactive
CHML | no change | no change | -3.76 | -0.74 | inactive
PCDH10 | no change | no change | 0.07 | -1.14 | inactive
NOL4L | no change | no change | 0.1 | 4.75 | inactive
LIN7C | no change | no change | 0.38 | -0.89 | inactive

A run of entries taken from the entries so far, for reference:
Gene | viability hit class | caspase hit class | viability robust z-score | caspase robust z-score | activity call
CHML | no change | no change | -3.76 | -0.74 | inactive
PCDH10 | no change | no change | 0.07 | -1.14 | inactive

Continued:
Gene | viability hit class | caspase hit class | viability robust z-score | caspase robust z-score | activity call
CRACR2B | no change | no change | -0.23 | 3.53 | inactive
BARX1 | no change | no change | -2.12 | 3.5 | inactive
IL17B | no change | no change | 0.57 | 1.8 | inactive
TMX1 | no change | no change | -0.4 | -1.28 | inactive
ADI1 | no change | no change | -0.96 | -0.84 | inactive
TICAM2 | no change | no change | -0.66 | -0.42 | inactive
MRPL38 | no change | no change | -0.1 | -1.09 | inactive
HDGF | no change | no change | -0.26 | 1.62 | inactive
YEATS2 | no change | no change | 0.26 | 0.22 | inactive
GPN1 | no change | no change | -0.54 | 1.06 | inactive
APOL3 | no change | no change | 1.21 | 1.16 | inactive
DTWD2 | no change | no change | -0.04 | 1.4 | inactive
